This data set in a line: Detection of ApoA1 cross links by Western blotting after MPO modification. The note with it: MPO/Cl-/H2O2 oxidation at increasing doses of H2O2. From the text: FIG. 8 illustrates an immunoblot showing tryptophan to phenylalanine substituted ApoA1 is still susceptible to cross linking by MPO. rh-ApoA1, and rh-ApoA1 4WF were subjected to MPO modification at the following mole ratios of H2O2:ApoA1; 0, 1, 2, 3, 5, and 12.5 (from left to right). ApoA1 cross linking was qualitatively assessed by Western blotting. The migration of molecular weight standards is shown on the left side.
MPO at a final concentration of 57 nmol/L, prepared as previously described, was added to ApoA1 at 100 μg/mL (3.5 μmol/L) that had been extensively dialyzed against MPO reaction buffer. The reaction was initiated by adding hydrogen peroxide at varying mole ratios to ApoA1 in 4 aliquots at 15-minute intervals at 37° C., and continuing the incubation for 90 minutes, at which time 2 mmol/L L-methionine was added to quench the reaction. For chemical modification of ApoA1, sodium hypochlorite (NaOCI) was added to 100 μg/mL ApoA1 in MPO buffer at varying concentrations in 4 aliquots at 15 minutes intervals at 37° C. After a total incubation time of 60 minutes, 2 mmol/L L-metbionine was added to quench the reaction.
250 ng of ApoA1 per lane was denatured in an SDS sample buffer, run on a 10% Tris glycine gel in the presence of SDS, and the protein was transferred to a polyvinylidene fluoride (PVDF) membrane. […]
For orientation: In western blotting, separated proteins are transferred to a membrane and probed.

Protein sequences, listed by entry. Tags and fused reporters are not part of them. Lines headed by an entry give the natural chain unless they say otherwise; changes in a name come on top.
UniProt P02647: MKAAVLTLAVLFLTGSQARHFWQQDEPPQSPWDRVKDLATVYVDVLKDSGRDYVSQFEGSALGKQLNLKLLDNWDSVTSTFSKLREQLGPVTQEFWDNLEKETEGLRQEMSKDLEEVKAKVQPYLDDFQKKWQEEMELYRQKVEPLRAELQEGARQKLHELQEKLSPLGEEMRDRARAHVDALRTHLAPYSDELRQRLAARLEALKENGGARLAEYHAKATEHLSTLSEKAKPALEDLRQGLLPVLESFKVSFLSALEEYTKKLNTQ

B1: rh-ApoA1 4WF: rh-ApoA1 with each of the four tryptophan residues altered to phenylalanine (protein, UniProt P02647 25-267, looked up, variant W8F W50F W72F W108F)
Apolipoprotein A-I: DEPPQSPFDRVKDLATVYVDVLKDSGRDYVSQFEGSALGKQLNLKLLDNFDSVTSTFSKLREQLGPVTQEFFDNLEKETEGLRQEMSKDLEEVKAKVQPYLDDFQKKFQEEMELYRQKVEPLRAELQEGARQKLHELQEKLSPLGEEMRDRARAHVDALRTHLAPYSDELRQRLAARLEALKENGGARLAEYHAKATEHLSTLSEKAKPALEDLRQGLLPVLESFKVSFLSALEEYTKKLNTQ
As for B1, the “migration of predominant cross-linked band in denaturing gel” value is on record as “about 70 kD”.

The record behind these values is US8536117B2, “Oxidant resistant apolipoprotein A-1 and mimetic peptides” (The Cleveland Clinic Foundation, priority 2007, dated 2013).
